{"source": "patent US20250059231A1", "about": "(priority 2021, published 2025)", "note": "The star is where a group is joined. Palmitoyl = CCCCCCCCCCCCCCCC(=O)*; Boc = CC(C)(C)OC(=O)*", "data": [{"test": "general procedure: Fmoc solid-phase peptide synthesis; CTC-Cl resin; DIPCDI/HOBt", "details": "whole synthesis, scale 3.3 mmol, bis-TFA salt", "units": {"crude mass": "g", "crude yield": "%"}, "values": [{"substance": "Palmitoyl-K(Boc)AAK(Boc)-OH", "crude mass": 1.7, "crude yield": 60}]}, {"test": "general procedure: Fmoc solid-phase peptide synthesis; Rink amide MBHA/AM resin; CTC-Cl resin (Barlos' resin); DIPCDI/HOBt", "details": "coupling step, bis-TFA salt", "units": {"step yield": "%"}, "values": [{"substance": "Palmitoyl-Lys(Boc)-Ala-Ala-Lys(Boc)-Oxd-Me", "step yield": 24}, {"substance": "Tert-butyl ((9R,12S,15S,18S)-9-((cyclopropylsulfonyl)carbamoyl)-12,15-dimethyl-3,11,14,17-tetraoxo-18-palmitamido-1-phenyl-2-oxa-4,10,13,16-tetraazadocosan -22-yl)carbamate", "step yield": 73}, {"substance": "Palmitoyl-Lys (Cbz)-Ala-Ala-5-bromo-1-BO2Pin-pentylamide", "step yield": 35}, {"substance": "Palmitoyl-Ala-trans-(O-pyridinyl) Hyp-Ala-Lys (Cbz) NH2", "step yield": 79}, {"substance": "Palmitoyl-Lys(Boc)-Ala-Ala-Lys(Boc)-CH—OH—C═O—NH2", "step yield": 26}]}, {"test": "general procedure: Fmoc solid-phase peptide synthesis; Rink amide MBHA/AM resin; CTC-Cl resin (Barlos' resin); DIPCDI/HOBt", "details": "late stage modification step, bis-TFA salt", "units": {"step yield": "%"}, "values": [{"substance": "Palmitoyl-Lys(Boc)-Ala-Ala-Lys(Boc)-H", "step yield": 26}, {"substance": "Palmitoyl-Lys (Cbz)-Ala-Ala-5-azido-1-BO2Pin-pentylamide", "step yield": 91}, {"substance": "Palmitoyl-Lys(Boc)-Ala-Ala-Lys(Boc)-C═O—NH2", "step yield": 99}, {"substance": "Palmitoyl-Lys-Ala-Ala-5-amine-1-BO2Pin-pentylamide", "step yield": 95}, {"substance": "Palmitoyl-Lys(Boc)-Ala-Ala-Lys(Boc)-N(OMe)Me", "step yield": 93}]}]}
